Values of other authors in patent US6596319B2, “Immunomodulating compositions for treatment of immune system disorders” (Lorus Therapeutics Inc., priority 2001, dated 2003).
At least one structure is not confirmed: it was looked up by name or label, or the drawing left a doubt.

System: advanced malignant melanoma
Conditions: standard treatment; cited from earlier work

Compound: CN(C)/N=N/c1[nH]cnc1C(N)=O [DTIC, dacarbazine]
- Median response: 3-6 months
- Reported response rate: about 15%
